Measured values from PubChem BioAssay AID2685 (National Center for Advancing Translational Sciences (NCATS), 2010).
This is one part of the list. The main result of the screen is listed elsewhere. These columns were measured beside it and carry no call. The list favours compounds with an active or inconclusive main result. Potencies come from curve fits of mixed quality, noted in brackets.

Assay: qHTS Assay for Lipid Storage Modulators in Drosophila S3 Cells;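 for cell number change: cells counted by Cell Tracker Red CMTPX staining in the red channel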
Conditions: BODIPY lipid droplet fluorescence, 18-24 h; for cell number change: measured here: cell count max response, cells fed with added oleic acid
Procedure, shortened: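 Drosophila S3 cells loaded with oleic acid (400 uM, as added) and compounds at several concentrations; lipid droplets imaged by 488-nm laser-scanning cytometry, 500–530 nm intensity and object ratio to cell channel. Percent activity normalized to 20 uM Triacsin C.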

[1] = measured here: cell number channel AC50, cells fed with added oleic acid
[2] = measured here: lipid fluorescence (Fed channel) AC50, cells fed with added oleic acid

| Compound | cell number change | AC50 [1] | AC50 [2] |
| --- | --- | --- | --- |
| COc1ccc(-c2cc(C(F)(F)F)n3ncc(C(=O)NCC4CCCO4)c3n2)cc1 (stereo not given) | 182% | 29.1 µM [rising, single point] | 29.1 µM [rising, single point] |
| Cc1c(C(=O)NC2=NCCS2)oc2ccccc12 |  | 1.84 µM [rising, partial curve] |  |
| Fc1ccc(CN2CCCCCCC2)cc1F | -49.5% | 0.92 µM [falling, full curve, poor fit] | 25.9 µM [falling, partial curve] |
| Cc1ccc(C)c(NC(=O)CSc2nnc(-c3ccccc3)n2N)c1 | 4.4% |  | 29.1 µM [rising, partial curve] |
| Cc1cc(SCC(=O)OC(C)C(=O)N(C)c2ccccc2)nc2ccccc12 (stereo not given) | 22.6% |  |  |
| Cc1ccc(C2(C)NC(=O)N(CC(=O)NNC(=O)c3cc(C)oc3C)C2=O)cc1 (stereo not given) | 4.47% |  |  |
| S=C(NCC1CCCO1)NC1CCCC1 (stereo not given) |  |  | 2.59 µM [falling, partial curve, poor fit] |
| COCCCN1C(=O)c2[nH]nc(-c3ccccc3O)c2C1c1cccc(Cl)c1 (stereo not given) | -41.7% | 25.9 µM [falling, partial curve] | 32.6 µM [falling, single point] |
| COCC(=O)N1CCC(Oc2ccc(C(=O)NC3CCOC(C)(C)C3)cc2)CC1 (stereo not given) | -2.97% |  | 8.2 µM [rising, partial curve] |
| CCOC(=O)c1ccc(N=Nc2c(C)c(C#N)c(O)[nH]c2=O)cc1 | 51.3% | 23.1 µM [rising, single point] |  |
| COc1ccc(NC(=O)c2ccc(OC)c(S(=O)(=O)N3CCCCC3C)c2)cn1 (stereo not given) | -15.2% |  |  |
| COc1ccccc1-c1nnc(SCc2nc3ccccc3[nH]2)n1C | -29.5% |  | 10.3 µM [falling, single point] |
| C/C=C/c1ccc(OCCCCOc2c(OC)cccc2OC)c(OC)c1 | 6.94% |  | 4.61 µM [falling, full curve, poor fit] |
| CN(C)c1ccc(C(=O)Nc2ccc(S(=O)(=O)Nc3nccs3)cc2)cc1 | 121% | 25.9 µM [rising, single point] |  |
| O=[N+]([O-])c1cccc(/C=C/c2nc3ccc([N+](=O)[O-])cc3[nH]2)c1 | 11% |  |  |
| Cc1ccccc1NS(=O)(=O)c1cc(C(=O)N2CCCC2)ccc1C |  | 2.31 µM [rising, partial curve] | 2.06 µM [rising, partial curve] |
| CCN1C(=O)CSC1=Nc1ccccc1Cl |  |  | 6.51 µM [rising, single point] |
| CCOC(=O)N1CCN(C(=O)/C=C/c2ccc(C(C)(C)C)cc2)CC1 | -30.4% | 29.1 µM [falling, single point] | 6.51 µM [rising, single point] |
| N=c1n(Cc2ccccc2)c2ccccc2n1CC(O)COc1ccc(Cl)cc1Cl (stereo not given) | -63.1% | 16.4 µM [falling, partial curve] | 10.3 µM [falling, partial curve] |
| Clc1ccc(-c2nc(-c3ccccn3)no2)cc1Cl | 5.74% |  |  |
| CC(C)N(C(=O)NC(=O)Nc1ccccn1)S(C)(=O)=O | -39.7% | 0.184 µM [falling, full curve, poor fit] |  |

| Compound | cell number change | AC50 [1] | AC50 [2] |
| --- | --- | --- | --- |
| O=C(c1ccccc1)N1CCN(c2ncccn2)CC1 |  |  | 23.1 µM [falling, single point] |
| CC(NC(=O)Cc1ccccc1)C(c1ccccc1)N1CCOCC1 (stereo not given) |  |  | 0.58 µM [falling, single point] |
| Cc1cn(-c2ccc(Br)cc2)[nH]c1=O | -24.7% | 0.00517 µM [falling, full curve, poor fit] | 2.06 µM [falling, partial curve] |
| Cc1cccc(N2CCN(C(=O)c3cc(S(=O)(=O)N4CCOCC4)cn3C)CC2C)c1 (stereo not given) | -15.8% |  |  |
| CC(C)(C)C1CCc2nc(NC(=O)Cc3cn4ccsc4n3)sc2C1 (stereo not given) | -27.7% |  |  |
| CC(=O)c1ccc(N2CCN(C(=S)NCCCN(C)C)CC2)cc1 | -61.3% | 23.1 µM [falling, single point] | 16.4 µM [falling, partial curve, poor fit] |
| CN(C)c1ccc(/C=N/NC(=O)Cn2nnc3ccccc32)cc1 | 32.7% | 4.61 µM [rising, partial curve] |  |
| CCOc1ccc2nc(N/C(N)=N/C(=S)Nc3ccc(C)c(C)c3)nc(C)c2c1 | 28.8% |  | 0.0731 µM [rising, full curve] |
| Cc1c(Cl)cnc(NC(=O)CSc2nnc3ccccn23)c1Cl | 2.16% |  | 6.51 µM [falling, single point] |
| CC(=O)N1CCN(C(=O)c2ccc(S(=O)(=O)Nc3ccccc3Cl)cc2)CC1 | 36.6% | 9.2 µM [rising, partial curve] |  |
| O=C(O)c1oc2ccccc2c1CSc1ccc(Cl)cc1 | 0.794% |  | 29.1 µM [rising, single point] |
| CN(C)c1nc(NN)nc(Nc2ccc(F)cc2)n1 | 13.5% |  | 29.1 µM [rising, single point] |
| COc1ccc(/C=N/NC(=O)C(C)n2nnc3ccccc32)cc1OC (stereo not given) | -7.92% |  |  |
| Cc1ccc(O)c(-c2[nH]ncc2C(=O)c2ccc(Br)cc2)c1 | -53.3% | 14.6 µM [falling, single point] |  |
| O=C(NNS(=O)(=O)c1ccc([N+](=O)[O-])cc1)c1ccncc1 | 42% | 10.3 µM [rising, partial curve, poor fit] |  |
| CN(C)/C=C/C1=CC(=O)CC(C)(C)C1 | -3.13% |  |  |
| COc1ccccc1N1CC(C(=O)Nc2nnc(SCc3cccnc3)s2)CC1=O (stereo not given) | -1.16% |  |  |
| Cc1ccc(NC(=O)CC2SC(=Nc3ccc(O)cc3)NC2=O)cc1 (stereo not given) | -0.361% |  | 0.291 µM [falling, partial curve, poor fit] |
| CC(C)Cc1nn2c(=O)cc(COc3ccc(NC(=O)c4ccco4)cc3)nc2s1 | 16.8% |  | 0.411 µM [rising, full curve] |
| COc1ccc(C(=O)Nc2nnc(CCS(=O)(=O)c3ccc(C)cc3)s2)cc1 |  | 2.91 µM [rising, single point] |  |
| CCOC(=O)CSc1nc2c(c(=O)n1-c1ccc(OCC)cc1)SCC2 | -227% | 29.1 µM [falling, partial curve] | 20.6 µM [falling, partial curve] |

Among those listed so far, these have a nitro group on carbon.

| Compound | cell number change | AC50 [1] | AC50 [2] |
| --- | --- | --- | --- |
| O=[N+]([O-])c1cccc(/C=C/c2nc3ccc([N+](=O)[O-])cc3[nH]2)c1 | 11% |  |  |
| O=C(NNS(=O)(=O)c1ccc([N+](=O)[O-])cc1)c1ccncc1 | 42% | 10.3 µM [rising, partial curve, poor fit] |  |

(more compounds)

| Compound | cell number change | AC50 [1] | AC50 [2] |
| --- | --- | --- | --- |
| COc1ccc(-c2ccc(C(=O)O)o2)c([N+](=O)[O-])c1 | 19.2% | 1.64 µM [falling, partial curve] |  |
| O=C1CCCC2=C1C(c1ccccc1)C1C(=O)c3ccccc3C1=N2 (stereo not given) | 17.4% |  | 2.91 µM [rising, full curve, poor fit] |
| CC(C)(C)NC(=O)C1CCN(C(=O)c2ccco2)CC1 | 5.88% |  |  |
| Cc1ccc(C(=O)Nc2nnc(C)s2)o1 | -30.3% | 20.6 µM [falling, single point] | 29.1 µM [falling, single point] |
| O=C(NC(=S)Nc1ccc(N2CCOCC2)cc1)c1cncc(Br)c1 |  | 0.103 µM [falling, full curve, poor fit] | 0.58 µM [rising, partial curve] |
| COC(=O)C1=C(C)N(C)C(=S)NC1c1ccccc1 (stereo not given) | -10.9% |  | 6.51 µM [falling, single point] |
| CCC1=NN2C(=N)/C(=C\c3cccn3-c3ccc(OC)cc3)C(=O)N=C2S1 | 37.5% |  | 0.326 µM [falling, partial curve] |
| Cc1cc(NC(=S)N(CCCN2CCOCC2)Cc2ccco2)ccc1Cl | -0.617% |  |  |
| O=C(c1cnn(Cc2ccccc2)c1)N1CCN(S(=O)(=O)/C=C/c2ccccc2)CC1 | -13.2% |  | 0.082 µM [rising, partial curve, poor fit] |
| CC(=O)Oc1ccc(C(=O)Nc2cccc3c2CCCC3)cc1 | -12.4% |  |  |
| O=C(Cc1cccs1)NNC(=O)C12CC3CC(CC(C3)C1)C2 | 55.7% | 16.4 µM [rising, single point] |  |
| CN(CC(=O)NC(=O)NCc1ccccc1)CC(=O)Nc1ccc(Cl)c(C(F)(F)F)c1 | -27.2% |  |  |
| O=C(OCc1nc2ccc(Cl)cc2n1CCO)c1ccccc1 | -2.88% |  | 0.116 µM [falling, full curve, poor fit] |
| CCOC(=O)C(=CNc1cc(C)nn1-c1ccc(C)cc1)C(=O)OCC | 22.6% |  | 1.64 µM [rising, partial curve] |
| Cc1cccc(/C=N/NC(=O)c2ccc3c(c2)OCCO3)c1O | -38.2% | 2.06 µM [falling, partial curve] | 6.51 µM [falling, single point] |
| O=C(c1noc2c1CCCC2)N1CCN(C(c2ccccc2)c2ccccc2)CC1 | -0.283% |  |  |
| O=C(O)CCc1ccc(S(=O)(=O)Nc2cc(C(F)(F)F)ccc2N2CCCC2)cc1 |  |  | 4.61 µM [rising, full curve] |
| COc1ccc(C(C2C(=O)CC(C)(C)CC2=O)C2C(=O)CC(C)(C)CC2=O)cc1CO | 70.9% | 23.1 µM [rising, partial curve, poor fit] | 20.6 µM [rising, partial curve] |
| c1ccc(COc2ccc(OCCCNC3CCCC3)cc2)cc1 | 8.75% |  | 3.66 µM [falling, partial curve] |
| CC(=O)c1c(C)[nH]c(C(=O)Nc2cc(C)cc(C)c2)c1C | 22.3% | 0.92 µM [rising, full curve, poor fit] | 25.9 µM [falling, single point] |
| COc1ccc(OC)c(NC(=O)COC(=O)CCC2CCCC2)c1 | -14.6% |  |  |
